Experimental data from the supplement of paper PMC10849652.
Some of the results follow.

Chains of the proteins cited; added tags and fusions are not shown. Lines headed by an entry give the natural chain unless they say otherwise; changes in a name come on top.
UniProt O75616: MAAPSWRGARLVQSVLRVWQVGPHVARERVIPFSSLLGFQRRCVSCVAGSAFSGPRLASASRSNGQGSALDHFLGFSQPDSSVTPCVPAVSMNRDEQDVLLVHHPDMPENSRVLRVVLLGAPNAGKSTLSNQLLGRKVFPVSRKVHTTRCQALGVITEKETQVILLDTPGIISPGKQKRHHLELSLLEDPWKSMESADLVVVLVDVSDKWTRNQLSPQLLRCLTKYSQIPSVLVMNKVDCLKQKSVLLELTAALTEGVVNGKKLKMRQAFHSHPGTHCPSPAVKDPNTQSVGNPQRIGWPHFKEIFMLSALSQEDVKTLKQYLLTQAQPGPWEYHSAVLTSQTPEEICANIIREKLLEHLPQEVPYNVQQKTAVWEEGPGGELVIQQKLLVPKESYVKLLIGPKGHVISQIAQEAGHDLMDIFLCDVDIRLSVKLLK
UniProt Q9P0I2: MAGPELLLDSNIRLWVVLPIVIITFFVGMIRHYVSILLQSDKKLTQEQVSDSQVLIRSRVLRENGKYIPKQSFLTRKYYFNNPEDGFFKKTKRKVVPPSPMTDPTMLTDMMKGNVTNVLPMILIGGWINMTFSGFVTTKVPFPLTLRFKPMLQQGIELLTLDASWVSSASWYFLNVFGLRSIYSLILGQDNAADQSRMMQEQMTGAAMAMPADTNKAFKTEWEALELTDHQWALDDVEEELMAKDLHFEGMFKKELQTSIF
UniProt Q92556, whole entry, looked up: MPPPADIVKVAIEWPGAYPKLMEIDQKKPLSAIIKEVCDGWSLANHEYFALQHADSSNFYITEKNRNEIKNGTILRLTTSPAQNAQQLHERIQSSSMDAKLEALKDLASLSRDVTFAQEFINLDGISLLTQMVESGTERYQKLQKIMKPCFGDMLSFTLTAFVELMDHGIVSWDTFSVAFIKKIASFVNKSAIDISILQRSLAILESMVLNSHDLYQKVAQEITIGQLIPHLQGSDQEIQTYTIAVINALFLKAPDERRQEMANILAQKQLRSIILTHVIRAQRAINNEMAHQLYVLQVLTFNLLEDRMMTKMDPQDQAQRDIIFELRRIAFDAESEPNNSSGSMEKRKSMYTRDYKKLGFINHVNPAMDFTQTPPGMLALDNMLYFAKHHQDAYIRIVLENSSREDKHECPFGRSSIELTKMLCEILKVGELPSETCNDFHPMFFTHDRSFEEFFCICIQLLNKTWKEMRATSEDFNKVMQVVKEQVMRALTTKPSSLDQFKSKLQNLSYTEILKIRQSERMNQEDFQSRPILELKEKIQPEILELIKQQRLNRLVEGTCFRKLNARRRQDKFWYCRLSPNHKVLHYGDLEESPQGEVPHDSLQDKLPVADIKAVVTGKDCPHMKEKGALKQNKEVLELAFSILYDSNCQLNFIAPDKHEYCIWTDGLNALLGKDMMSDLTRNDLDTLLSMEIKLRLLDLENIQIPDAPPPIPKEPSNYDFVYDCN
UniProt P55884, whole entry, looked up: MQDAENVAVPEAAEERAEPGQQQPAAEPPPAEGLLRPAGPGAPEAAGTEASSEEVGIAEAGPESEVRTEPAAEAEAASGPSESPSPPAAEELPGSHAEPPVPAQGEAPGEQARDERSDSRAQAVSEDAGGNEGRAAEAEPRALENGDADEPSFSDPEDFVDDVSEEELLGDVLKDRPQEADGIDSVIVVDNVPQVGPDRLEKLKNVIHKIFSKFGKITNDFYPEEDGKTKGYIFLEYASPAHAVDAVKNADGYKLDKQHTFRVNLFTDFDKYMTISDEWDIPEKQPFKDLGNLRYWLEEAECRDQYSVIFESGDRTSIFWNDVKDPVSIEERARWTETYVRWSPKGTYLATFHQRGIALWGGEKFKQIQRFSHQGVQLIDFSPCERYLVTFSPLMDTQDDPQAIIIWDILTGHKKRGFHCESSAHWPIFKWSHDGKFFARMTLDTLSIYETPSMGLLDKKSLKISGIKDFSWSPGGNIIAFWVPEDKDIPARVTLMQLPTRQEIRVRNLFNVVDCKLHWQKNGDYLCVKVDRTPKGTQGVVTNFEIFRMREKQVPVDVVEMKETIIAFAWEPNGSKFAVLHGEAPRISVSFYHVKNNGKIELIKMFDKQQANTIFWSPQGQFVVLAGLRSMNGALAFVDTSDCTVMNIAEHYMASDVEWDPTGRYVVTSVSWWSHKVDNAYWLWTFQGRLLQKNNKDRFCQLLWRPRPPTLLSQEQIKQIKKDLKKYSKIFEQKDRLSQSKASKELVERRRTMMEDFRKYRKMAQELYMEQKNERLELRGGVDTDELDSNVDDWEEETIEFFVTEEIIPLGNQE
UniProt Q8IV48: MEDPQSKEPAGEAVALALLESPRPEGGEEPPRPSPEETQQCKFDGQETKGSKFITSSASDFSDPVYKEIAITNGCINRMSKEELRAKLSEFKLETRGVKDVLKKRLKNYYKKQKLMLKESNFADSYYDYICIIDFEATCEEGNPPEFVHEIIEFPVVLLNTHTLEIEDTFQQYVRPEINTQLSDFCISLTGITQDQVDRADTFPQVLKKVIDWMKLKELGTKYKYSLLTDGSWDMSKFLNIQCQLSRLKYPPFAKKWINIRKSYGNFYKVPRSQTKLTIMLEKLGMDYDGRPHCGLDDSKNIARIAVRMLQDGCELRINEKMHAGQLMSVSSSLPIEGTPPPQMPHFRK
UniProt Q9NPA8: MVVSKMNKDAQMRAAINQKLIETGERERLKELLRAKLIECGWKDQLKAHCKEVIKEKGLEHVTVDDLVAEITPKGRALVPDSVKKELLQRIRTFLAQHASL
UniProt Q9NPA0: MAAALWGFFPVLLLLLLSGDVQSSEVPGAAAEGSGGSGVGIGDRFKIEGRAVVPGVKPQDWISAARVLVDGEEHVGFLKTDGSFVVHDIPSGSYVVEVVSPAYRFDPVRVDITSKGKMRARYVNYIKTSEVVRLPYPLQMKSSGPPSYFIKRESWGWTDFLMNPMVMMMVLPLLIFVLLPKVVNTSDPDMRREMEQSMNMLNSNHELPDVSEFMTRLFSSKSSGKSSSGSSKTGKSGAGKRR
UniProt Q9BV81: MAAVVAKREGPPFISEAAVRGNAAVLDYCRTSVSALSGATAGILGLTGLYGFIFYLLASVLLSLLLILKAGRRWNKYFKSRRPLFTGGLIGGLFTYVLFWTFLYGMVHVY
UniProt P41214: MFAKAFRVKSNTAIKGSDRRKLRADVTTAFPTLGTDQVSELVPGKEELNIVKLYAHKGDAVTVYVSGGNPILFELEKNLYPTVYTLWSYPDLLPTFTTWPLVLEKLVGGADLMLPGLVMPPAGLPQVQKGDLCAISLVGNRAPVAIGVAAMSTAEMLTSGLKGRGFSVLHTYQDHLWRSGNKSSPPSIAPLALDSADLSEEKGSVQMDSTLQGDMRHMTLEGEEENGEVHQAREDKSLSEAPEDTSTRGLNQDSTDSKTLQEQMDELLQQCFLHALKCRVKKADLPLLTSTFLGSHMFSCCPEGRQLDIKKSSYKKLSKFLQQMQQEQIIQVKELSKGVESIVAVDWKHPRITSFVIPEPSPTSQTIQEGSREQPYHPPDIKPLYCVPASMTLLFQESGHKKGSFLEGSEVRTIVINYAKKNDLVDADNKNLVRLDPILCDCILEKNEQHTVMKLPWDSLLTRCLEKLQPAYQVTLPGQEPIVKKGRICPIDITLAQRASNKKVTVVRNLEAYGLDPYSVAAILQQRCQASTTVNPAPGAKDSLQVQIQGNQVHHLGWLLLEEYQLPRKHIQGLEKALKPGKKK
UniProt P41091, whole entry, looked up: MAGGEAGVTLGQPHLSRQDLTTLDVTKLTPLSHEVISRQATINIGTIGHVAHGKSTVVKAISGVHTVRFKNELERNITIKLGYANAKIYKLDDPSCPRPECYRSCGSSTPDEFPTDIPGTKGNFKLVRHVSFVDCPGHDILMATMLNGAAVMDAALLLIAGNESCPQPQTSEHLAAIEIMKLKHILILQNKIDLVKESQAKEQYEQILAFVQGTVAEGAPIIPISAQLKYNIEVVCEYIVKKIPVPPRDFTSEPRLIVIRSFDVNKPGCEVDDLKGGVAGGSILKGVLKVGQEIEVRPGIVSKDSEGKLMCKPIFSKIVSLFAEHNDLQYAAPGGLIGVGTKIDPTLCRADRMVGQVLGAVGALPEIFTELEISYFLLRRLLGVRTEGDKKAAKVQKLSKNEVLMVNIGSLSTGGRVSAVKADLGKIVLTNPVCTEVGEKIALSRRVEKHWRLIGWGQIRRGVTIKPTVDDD
UniProt P84090, whole entry, looked up: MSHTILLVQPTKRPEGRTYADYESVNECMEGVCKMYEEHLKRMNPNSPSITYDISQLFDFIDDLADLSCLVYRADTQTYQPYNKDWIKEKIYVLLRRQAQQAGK
UniProt P34913, whole entry, looked up: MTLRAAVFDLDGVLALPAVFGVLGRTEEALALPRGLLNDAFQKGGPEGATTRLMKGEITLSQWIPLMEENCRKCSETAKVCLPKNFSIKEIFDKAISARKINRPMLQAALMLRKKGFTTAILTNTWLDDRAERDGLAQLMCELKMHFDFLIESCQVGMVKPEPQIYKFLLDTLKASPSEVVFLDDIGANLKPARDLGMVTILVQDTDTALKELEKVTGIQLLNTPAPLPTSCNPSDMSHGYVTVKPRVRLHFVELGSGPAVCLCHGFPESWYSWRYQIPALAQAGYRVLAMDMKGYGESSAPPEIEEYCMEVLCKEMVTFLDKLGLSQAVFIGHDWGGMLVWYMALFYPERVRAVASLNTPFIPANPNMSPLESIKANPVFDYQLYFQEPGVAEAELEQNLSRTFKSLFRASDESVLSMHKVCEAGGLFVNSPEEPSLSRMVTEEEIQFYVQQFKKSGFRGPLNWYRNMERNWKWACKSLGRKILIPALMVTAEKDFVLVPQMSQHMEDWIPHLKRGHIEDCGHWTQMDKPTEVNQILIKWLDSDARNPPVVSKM
UniProt P19447: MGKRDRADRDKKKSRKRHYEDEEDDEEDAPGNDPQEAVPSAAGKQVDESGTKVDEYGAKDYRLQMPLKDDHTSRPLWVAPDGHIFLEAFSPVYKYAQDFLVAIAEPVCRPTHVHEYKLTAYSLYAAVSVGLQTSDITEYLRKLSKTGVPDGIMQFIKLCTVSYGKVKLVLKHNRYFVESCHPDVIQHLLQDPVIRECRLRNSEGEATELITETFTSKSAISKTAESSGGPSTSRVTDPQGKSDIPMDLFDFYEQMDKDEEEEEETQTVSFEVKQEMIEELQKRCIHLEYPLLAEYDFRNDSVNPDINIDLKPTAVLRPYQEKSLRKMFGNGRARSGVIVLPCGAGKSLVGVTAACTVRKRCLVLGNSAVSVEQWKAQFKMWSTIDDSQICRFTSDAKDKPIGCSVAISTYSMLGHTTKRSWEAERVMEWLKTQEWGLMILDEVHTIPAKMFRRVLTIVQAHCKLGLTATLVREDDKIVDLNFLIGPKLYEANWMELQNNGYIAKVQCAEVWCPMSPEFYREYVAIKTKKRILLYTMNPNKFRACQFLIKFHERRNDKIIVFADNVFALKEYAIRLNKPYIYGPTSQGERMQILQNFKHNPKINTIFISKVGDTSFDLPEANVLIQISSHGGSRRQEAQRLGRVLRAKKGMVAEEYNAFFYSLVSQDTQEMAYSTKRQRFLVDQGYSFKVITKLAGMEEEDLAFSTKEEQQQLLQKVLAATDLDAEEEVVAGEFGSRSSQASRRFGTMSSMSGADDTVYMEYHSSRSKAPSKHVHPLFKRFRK
UniProt O43768: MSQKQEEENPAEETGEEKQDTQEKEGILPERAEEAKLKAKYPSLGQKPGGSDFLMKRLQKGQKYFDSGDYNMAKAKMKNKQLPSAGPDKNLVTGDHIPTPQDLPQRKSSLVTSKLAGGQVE
UniProt P54852: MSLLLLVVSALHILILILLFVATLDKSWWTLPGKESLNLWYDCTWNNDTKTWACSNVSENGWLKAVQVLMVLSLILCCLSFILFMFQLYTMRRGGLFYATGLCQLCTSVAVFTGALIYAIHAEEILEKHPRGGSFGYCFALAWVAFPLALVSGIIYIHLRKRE
UniProt Q9UI10, whole entry, looked up: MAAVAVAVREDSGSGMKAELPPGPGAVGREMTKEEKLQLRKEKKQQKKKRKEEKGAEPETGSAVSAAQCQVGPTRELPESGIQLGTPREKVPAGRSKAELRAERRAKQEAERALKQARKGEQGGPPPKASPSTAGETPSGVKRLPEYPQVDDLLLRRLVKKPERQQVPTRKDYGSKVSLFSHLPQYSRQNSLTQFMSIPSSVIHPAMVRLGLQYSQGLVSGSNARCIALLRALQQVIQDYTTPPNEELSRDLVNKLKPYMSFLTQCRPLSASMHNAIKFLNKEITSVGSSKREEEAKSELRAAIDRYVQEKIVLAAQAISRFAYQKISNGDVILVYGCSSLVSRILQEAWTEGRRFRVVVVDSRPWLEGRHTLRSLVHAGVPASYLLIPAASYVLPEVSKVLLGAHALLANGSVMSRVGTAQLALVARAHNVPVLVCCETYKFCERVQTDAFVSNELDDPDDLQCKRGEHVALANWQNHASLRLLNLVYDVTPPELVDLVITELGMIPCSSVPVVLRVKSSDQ
UniProt P50402: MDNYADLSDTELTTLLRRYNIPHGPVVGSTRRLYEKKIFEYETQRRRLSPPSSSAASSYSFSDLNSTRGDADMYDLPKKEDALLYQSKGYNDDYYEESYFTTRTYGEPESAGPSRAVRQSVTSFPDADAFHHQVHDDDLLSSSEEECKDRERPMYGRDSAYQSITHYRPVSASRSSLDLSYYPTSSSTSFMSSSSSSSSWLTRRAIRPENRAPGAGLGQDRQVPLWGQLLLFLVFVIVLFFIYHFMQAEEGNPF

Compound: CCCS(=O)(=O)Nc1ccc(F)c(C(=O)c2c[nH]c3ncc(-c4ccc(Cl)cc4)cc23)c1F [vemurafenib]
Experiment: log2 fold change, soluble protein after heating vs DMSO (PISA); higher = thermal stabilisation; K562 lysate, 10 uM; active = over 0.2 and 3.5 SD of the protein, either way, in both replicates (recomputed)
Procedure, shortened: (§1)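 Pellets of K562 cells were dounce-homogenised in PBS pH 7.4 with 1 mM MgCl2, and the crude extract was held at 1 mg/mL protein for a 30 min treatment with 10 μM compound. Aliquots were heated for 3 min over 48°C-58°C and pooled before NP-40 was added to 0.5% at 4°C. The supernatant from 21,000xg for 90 min was quantified by TMTpro 16plex LC-MS/MS with channel sums equalised. Values are reported from duplicates as log-two fold change in thermal stability relative to solvent controls.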

log2 fold change, inactive:
EIF3G (UniProt K7ER90) 0.137
EP300 (UniProt Q09472) -0.018
ERGIC2 (UniProt Q96RQ1) -0.006
ERAL1 (UniProt O75616) -0.058
EIF3F (UniProt O00303) -0.002
EMC3 (UniProt Q9P0I2) 0.009
ELMO1 (UniProt Q92556) 0.101
ERC1 (UniProt X6RLX0) -0.005
EIF3B isoform 2 (UniProt P55884) -0.007
ERI1 (UniProt Q8IV48) 0.01
ENY2 (UniProt Q9NPA8) -0.057
EMC7 (UniProt Q9NPA0) 0.034
EMC6 (UniProt Q9BV81) 0.054
EIF2D (UniProt P41214) 0.041
EIF2S3 (UniProt P41091) -0.017
ELF2 (UniProt Q15723) -0.022
ERH (UniProt P84090) -0.063
EPHX2 (UniProt P34913) -0.026
EPS15L1 isoform 2 (UniProt Q9UBC2) 0.003
ERCC4 (UniProt Q92889) 0.071
ERCC3 (UniProt P19447) -0.014
EPPK1 (UniProt P58107) 0.059
EIF6 (UniProt P56537) 0.062
ENSA isoform 3 (UniProt O43768) -0.034
EMP3 (UniProt P54852) 0.022
EIF4E isoform 2 (UniProt P06730) -0.02
ENTPD5 (UniProt O75356) -0.112
EPRS (UniProt P07814) 0.01
EIF2B4 isoform 2 (UniProt Q9UI10) -0.034
EMC4 (UniProt Q5J8M3) 0.088
ELP2 isoform 6 (UniProt Q6IA86) -0.022
ENGASE (UniProt Q8NFI3) 0.034
ENPP3 (UniProt O14638) 0.037
ENDOG (UniProt Q14249) -0.053
EPN1 (UniProt Q9Y6I3) -0.003
EMD (UniProt P50402) 0.022

Compound: CCCS(=O)(=O)Nc1ccc(F)c(C(=O)c2c[nH]c3ncc(Cl)cc23)c1F
Experiment: as above
Procedure, shortened: as §1

log2 fold change, inactive:
EIF3G (UniProt K7ER90) -0.02
EP300 (UniProt Q09472) -0.01
ERGIC2 (UniProt Q96RQ1) 0
ERAL1 (UniProt O75616) -0.016
EIF3F (UniProt O00303) -0.006
EMC3 (UniProt Q9P0I2) 0.03
ELMO1 (UniProt Q92556) 0.081
ERC1 (UniProt X6RLX0) -0.01
EIF3B isoform 2 (UniProt P55884) 0
ERI1 (UniProt Q8IV48) 0.01
ENY2 (UniProt Q9NPA8) 0.016
EMC7 (UniProt Q9NPA0) 0.004
EMC6 (UniProt Q9BV81) -0.084
EIF2D (UniProt P41214) 0.024
EIF2S3 (UniProt P41091) -0.015
ELF2 (UniProt Q15723) -0.056
ERH (UniProt P84090) 0.026
EPHX2 (UniProt P34913) -0.01
EPS15L1 isoform 2 (UniProt Q9UBC2) 0.02
ERCC4 (UniProt Q92889) 0.01
ERCC3 (UniProt P19447) -0.009
EPPK1 (UniProt P58107) 0.037
EIF6 (UniProt P56537) 0.003
ENSA isoform 3 (UniProt O43768) -0.016
EMP3 (UniProt P54852) -0.002
EIF4E isoform 2 (UniProt P06730) -0.026
ENTPD5 (UniProt O75356) 0.036
EPRS (UniProt P07814) -0.001
EIF2B4 isoform 2 (UniProt Q9UI10) 0.02
EMC4 (UniProt Q5J8M3) 0.008
ELP2 isoform 6 (UniProt Q6IA86) 0.011
ENGASE (UniProt Q8NFI3) 0.05
ENPP3 (UniProt O14638) 0.019
ENDOG (UniProt Q14249) -0.004
EPN1 (UniProt Q9Y6I3) 0.019
EMD (UniProt P50402) 0.003
